Test results from publication PMC3616908.
These are yes or no findings as the source states them, for the method shown. For some assays here: In cells and extracts the contact can be indirect. Some binding calls cover weakened binding; strength is not graded here. Where a sequence is shown, tags or fusion partners need not be part of it. Blank lines part the entries; values can stand above or below the binder they belong to.

Tests used:
[1] = biological target: T1, Chk1 (fusion of the triple-plasmid based yeast two-hybrid assay) (S. cerevisiae) (UniProt P38147); assay: two-hybrid; triple-plasmid based assay in cdc28-as1 cells synchronised with nocodazole (G2/M, mock treated) or alpha factor (G1, mock or 1-NMPP1) before induction of the bait
T1 sequence: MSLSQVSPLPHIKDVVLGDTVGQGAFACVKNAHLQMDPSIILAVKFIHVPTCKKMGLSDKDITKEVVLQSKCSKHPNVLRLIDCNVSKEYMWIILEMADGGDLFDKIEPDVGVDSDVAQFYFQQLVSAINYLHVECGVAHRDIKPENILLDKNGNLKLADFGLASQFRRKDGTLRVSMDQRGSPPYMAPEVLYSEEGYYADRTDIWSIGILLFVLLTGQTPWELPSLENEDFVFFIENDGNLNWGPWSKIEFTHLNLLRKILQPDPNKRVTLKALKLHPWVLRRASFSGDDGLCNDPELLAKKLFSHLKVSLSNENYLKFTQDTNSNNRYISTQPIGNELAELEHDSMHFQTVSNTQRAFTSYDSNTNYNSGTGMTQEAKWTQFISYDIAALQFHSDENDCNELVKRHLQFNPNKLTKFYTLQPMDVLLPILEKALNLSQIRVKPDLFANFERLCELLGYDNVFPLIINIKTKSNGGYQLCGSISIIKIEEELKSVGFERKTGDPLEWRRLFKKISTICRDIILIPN

[2] = biological target: T1, Chk1 (fusion of the triple-plasmid based yeast two-hybrid assay) (S. cerevisiae); assay: condition: only with 1-NMPP1 (Cdc28-as1 inhibited) in G2/M arrested cells; two-hybrid; triple-plasmid based assay in cdc28-as1 cells arrested in G2/M with nocodazole and treated with 1-NMPP1 (Cdc28-as1 inhibited) before induction of the bait
[3] = biological target: T2, Dpb11-13MYC (S. cerevisiae) (UniProt P47027); assay: co-IP; anti-FLAG (Chk1-3FLAG) or anti-MYC (Dpb11-13MYC) IP from 1 ml clarified crude extract (10 mg/ml) of nocodazole-arrested wild type or rad9^CDK1-9A cells, mock or 20 ug/ml bleocin for 45 min; IgG mock IP as control; western blot
T2 sequence: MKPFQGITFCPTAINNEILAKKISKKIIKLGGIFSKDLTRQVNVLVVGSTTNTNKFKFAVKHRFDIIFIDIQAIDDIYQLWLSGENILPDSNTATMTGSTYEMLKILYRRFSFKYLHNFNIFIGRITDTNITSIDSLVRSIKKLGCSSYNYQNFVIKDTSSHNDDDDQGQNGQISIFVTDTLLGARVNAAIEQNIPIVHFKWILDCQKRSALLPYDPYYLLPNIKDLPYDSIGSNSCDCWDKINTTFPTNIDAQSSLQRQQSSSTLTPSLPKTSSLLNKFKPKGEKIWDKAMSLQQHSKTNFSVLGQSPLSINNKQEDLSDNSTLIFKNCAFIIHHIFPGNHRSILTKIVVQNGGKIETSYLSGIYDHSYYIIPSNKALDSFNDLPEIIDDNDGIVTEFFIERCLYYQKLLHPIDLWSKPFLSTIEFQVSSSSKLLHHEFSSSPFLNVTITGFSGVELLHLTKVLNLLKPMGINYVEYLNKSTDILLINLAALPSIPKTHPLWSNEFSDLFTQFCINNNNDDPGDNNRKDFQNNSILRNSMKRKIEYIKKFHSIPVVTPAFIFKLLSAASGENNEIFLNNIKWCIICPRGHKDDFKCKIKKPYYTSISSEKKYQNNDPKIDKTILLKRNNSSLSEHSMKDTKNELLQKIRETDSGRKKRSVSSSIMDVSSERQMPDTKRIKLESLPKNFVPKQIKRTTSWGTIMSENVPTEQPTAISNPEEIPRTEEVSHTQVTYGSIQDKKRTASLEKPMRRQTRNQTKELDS

[4] = biological target: T3, Chk1-3FLAG (S. cerevisiae) (UniProt P38147); assay: as above
T3 sequence: T1 sequence

[5] = biological target: T2, Dpb11-13MYC (S. cerevisiae); assay: co-IP; anti-MYC (Dpb11-13MYC) IP from clarified crude extract of nocodazole-arrested wild type cells, mock treated (no bleocin); western blot for Rad9

- binding [1]: binds
- binding [2]: no binding
B1: Rad9 (fusion of the triple-plasmid based yeast two-hybrid assay) (protein, UniProt P14737 1-1309)
chain: MSGQLVQWKSSPDRVTQSAIKEALHSPLADGDMNEMNVPVDPLENKVNSTNIIEGSPKANPNPVKFMNTSEIFQKSLGLLDESPRHDDELNIEVGDNDRPNANILHNERTPDLDRIANFFKSNRTPGKENLLTKYQSSDLEDTPLMLRKKMTFQTPTDPLEQKTFKKLKSDTGFCYYGEQNDGEENASLEVTEADATFVQMAERSADNYDCALEGIVTPKRYKDELSKSGGMQDERVQKTQIMISAESPNSISSYDKNKITGNGRTTRNVNKVFNNNEDNIGAIEEKNPVKKKSENYSSDDLRERNNQIIQSNESEEINELEKNLNVSGRENDVNNLDIDINSAVSGTPSRNNAEEEMYSSESVNNREPSKKWIFRYSKDKTENNSNRSTQIVNNPRTQEMPLDSISIDTQPLSKSFNTETNNELETQIIVSSLSQGISAQKGPVFHSTGQTEEIKTQIINSPEQNALNATFETPVTLSRINFEPILEVPETSSPSKNTMSKPSNSSPIPKEKDTFNIHEREVETNNVFSNDIQNSSNAATRDDIIIAGSSDFNEQKEITDRIYLQLSGKQISDSGSDETERMSPNELDTKKESTIMSEVELTQELPEVEEQQDLQTSPKKLVVEEETLMEIKKSKGNSLQLHDDNKECNSDKQDGTESLDVALIEHESKGQSSELQKNLMQLFPSESQEIIQNRRTIKRRQKDTIEIGEEEENRSTKTSPTKHLKRNSDLDAASIKREPSCSITIQTGETGSGKDSKEQSYVFPEGIRTADNSFLSKDDIIFGNAVWCQYTWNYKFYPGILLEVDTNQDGCWIYFETGRSLTKDEDIYYLDIRIGDAVTFDGNEYVVVGLECRSHDLNIIRCIRGYDTVHLKKKNASGLLGKRTLIKALSSISLDLSEWAKRAKIILEDNEKNKGDAYRYLRHPIRGRKSMTNVLSPKKHTDDEKDINTHTEVYNNEIESSSEKKEIVKKDSRDALAEHAGAPSLLFSSGEIRTGNVFDKCIFVLTSLFENREELRQTIESQGGTVIESGFSTLFNFTHPLAKSLVNKGNTDNIRELALKLAWKPHSLFADCRFACLITKRHLRSLKYLETLALGWPTLHWKFISACIEKKRIVPHLIYQYLLPSGESFRLSLDSPSKGGIIKSNNIFSFYTQFLRGSNLRDQICGVKKMLNDYIVIVWGRSELDSFVKFAFACLSAGRMLTIDLPNIDVDDTEPLLNALDSLVPRIGSELSNRKLKFLIYANENNGKSQMKLLERLRSQISLKFKKFNYIFHTESKEWLIQTIINEDTGFHDDITDNDIYNTISEVR

- binding [3]: binds
- binding [4]: binds
B2: Rad9 (endogenous) (protein, UniProt P14737 1-1309)
chain: B1 chain
- binding [5]: no binding (condition: mock treated cells (no bleocin))
